Results are given in words; binding and its absence hold for the method and conditions named. Binding seen in cells or lysates may run through a third protein. Some results given as binding are weak or reduced against the parent protein; the word gives no strength.
T1: Sirt2 (NAD-dependent deacetylase sirtuin-2), endogenous mouse (mouse (endogenous in liver and AML12)) (UniProt Q8VDQ8)
T1 sequence: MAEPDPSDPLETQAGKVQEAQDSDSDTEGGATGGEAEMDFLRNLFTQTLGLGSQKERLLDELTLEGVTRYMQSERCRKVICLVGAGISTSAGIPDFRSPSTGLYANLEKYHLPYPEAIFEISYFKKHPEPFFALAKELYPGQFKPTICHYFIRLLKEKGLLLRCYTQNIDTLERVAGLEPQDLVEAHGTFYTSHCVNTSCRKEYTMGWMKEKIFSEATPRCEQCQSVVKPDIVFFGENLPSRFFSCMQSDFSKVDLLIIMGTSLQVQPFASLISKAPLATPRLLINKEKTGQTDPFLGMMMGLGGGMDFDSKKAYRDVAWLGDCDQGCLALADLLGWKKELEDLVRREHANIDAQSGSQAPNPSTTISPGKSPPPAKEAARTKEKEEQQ

The chains behind the UniProt entries cited, without tags or fusion partners.
UniProt P52480: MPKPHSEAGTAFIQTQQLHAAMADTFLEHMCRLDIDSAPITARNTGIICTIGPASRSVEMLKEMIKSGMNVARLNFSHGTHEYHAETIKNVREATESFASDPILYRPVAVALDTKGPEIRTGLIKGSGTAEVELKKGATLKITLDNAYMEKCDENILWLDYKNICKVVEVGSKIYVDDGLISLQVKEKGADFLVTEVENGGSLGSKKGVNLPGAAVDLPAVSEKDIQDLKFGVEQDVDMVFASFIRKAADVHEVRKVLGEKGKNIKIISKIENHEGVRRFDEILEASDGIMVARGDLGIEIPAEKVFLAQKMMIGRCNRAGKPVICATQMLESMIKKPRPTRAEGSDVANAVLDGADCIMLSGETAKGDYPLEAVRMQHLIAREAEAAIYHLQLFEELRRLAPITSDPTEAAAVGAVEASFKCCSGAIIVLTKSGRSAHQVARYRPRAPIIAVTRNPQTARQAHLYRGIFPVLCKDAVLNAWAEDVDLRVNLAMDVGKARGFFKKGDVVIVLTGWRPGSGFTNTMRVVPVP

B1: Sirt2 (NAD-dependent deacetylase sirtuin-2), endogenous mouse (protein, UniProt Q8VDQ8-1 1-389)
chain: T1 sequence

What was measured:
[1] = molecular target: T1, Sirt2 (NAD-dependent deacetylase sirtuin-2), endogenous mouse (mouse (endogenous in liver and AML12)); test: co-IP; endogenous proteins in AML12 cell lysate; IP with anti-PKM2 or anti-Sirt2 antibody, protein A/G beads, western blot; IP-lysis buffer 50 mM Tris pH 7.4, 150 mM NaCl, 0.1 mM EDTA, 20% glycerol, 0.2% NP-40, 0.1% SDS
[2] = molecular target: PKM2 (M2 isoform of pyruvate kinase), endogenous mouse (mouse (endogenous in liver and AML12)) (UniProt P52480); test: as above

Molecule | binding [1] | binding [2]
PKM2 (M2 isoform of pyruvate kinase), endogenous mouse (from UniProt P52480 1-531) | binds | 
B1 |  | binds

Reference: publication PMC11247741
